These are yes or no findings as the source states them, for the method shown. In cells and extracts the contact can be indirect. Here binding means that the protein was enriched with, or labelled near, the bait; the list need not be complete. Tags and fused reporters may be left off the sequences shown.

Chains of the proteins cited; added tags and fusions are not shown.
UniProt P08670: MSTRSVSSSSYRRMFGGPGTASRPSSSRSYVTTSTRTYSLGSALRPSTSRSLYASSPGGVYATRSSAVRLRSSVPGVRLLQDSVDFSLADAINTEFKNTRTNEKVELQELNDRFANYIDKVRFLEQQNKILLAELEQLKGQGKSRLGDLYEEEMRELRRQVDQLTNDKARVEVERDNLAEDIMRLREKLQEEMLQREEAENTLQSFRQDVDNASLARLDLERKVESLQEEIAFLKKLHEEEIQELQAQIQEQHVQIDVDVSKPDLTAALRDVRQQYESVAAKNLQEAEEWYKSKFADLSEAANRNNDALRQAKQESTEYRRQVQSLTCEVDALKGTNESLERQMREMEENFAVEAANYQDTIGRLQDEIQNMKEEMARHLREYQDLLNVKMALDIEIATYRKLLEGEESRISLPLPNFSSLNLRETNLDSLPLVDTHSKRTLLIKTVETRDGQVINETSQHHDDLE

The source of these data is publication PMC11705650.

For the experiment, the target named is T1, flag-labeled CCND3 (cyclin D3) (UniProt P30281).
T1 sequence: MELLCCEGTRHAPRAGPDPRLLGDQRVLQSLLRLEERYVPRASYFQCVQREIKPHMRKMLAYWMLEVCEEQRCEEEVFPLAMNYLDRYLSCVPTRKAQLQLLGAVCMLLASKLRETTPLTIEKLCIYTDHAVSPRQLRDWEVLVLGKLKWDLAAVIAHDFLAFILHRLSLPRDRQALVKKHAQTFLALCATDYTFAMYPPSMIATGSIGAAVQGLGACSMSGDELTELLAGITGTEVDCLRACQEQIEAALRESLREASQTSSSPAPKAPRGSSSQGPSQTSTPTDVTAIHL
Description: affinity purification with mass spectrometry; lysate of A549-DDP cells expressing flag-labeled CCND3; Co-IP with anti-flag or anti-IgG antibody; bands that differed from the IgG group were cut from the Coomassie-stained gel and sent for LC-MS/MS.

For vimentin (from UniProt P08670 1-466), the binding result was “binds”.
